Measured values: article PMC10060224
Results are given in words; binding and its absence hold for the method and conditions named. Binding seen in cells or lysates may run through a third protein. Where a sequence is shown, tags or fusion partners need not be part of it.

Molecular target: T1, Flag-tagged SENP6^C1030A (human) (UniProt Q9GZR1)
T1 sequence: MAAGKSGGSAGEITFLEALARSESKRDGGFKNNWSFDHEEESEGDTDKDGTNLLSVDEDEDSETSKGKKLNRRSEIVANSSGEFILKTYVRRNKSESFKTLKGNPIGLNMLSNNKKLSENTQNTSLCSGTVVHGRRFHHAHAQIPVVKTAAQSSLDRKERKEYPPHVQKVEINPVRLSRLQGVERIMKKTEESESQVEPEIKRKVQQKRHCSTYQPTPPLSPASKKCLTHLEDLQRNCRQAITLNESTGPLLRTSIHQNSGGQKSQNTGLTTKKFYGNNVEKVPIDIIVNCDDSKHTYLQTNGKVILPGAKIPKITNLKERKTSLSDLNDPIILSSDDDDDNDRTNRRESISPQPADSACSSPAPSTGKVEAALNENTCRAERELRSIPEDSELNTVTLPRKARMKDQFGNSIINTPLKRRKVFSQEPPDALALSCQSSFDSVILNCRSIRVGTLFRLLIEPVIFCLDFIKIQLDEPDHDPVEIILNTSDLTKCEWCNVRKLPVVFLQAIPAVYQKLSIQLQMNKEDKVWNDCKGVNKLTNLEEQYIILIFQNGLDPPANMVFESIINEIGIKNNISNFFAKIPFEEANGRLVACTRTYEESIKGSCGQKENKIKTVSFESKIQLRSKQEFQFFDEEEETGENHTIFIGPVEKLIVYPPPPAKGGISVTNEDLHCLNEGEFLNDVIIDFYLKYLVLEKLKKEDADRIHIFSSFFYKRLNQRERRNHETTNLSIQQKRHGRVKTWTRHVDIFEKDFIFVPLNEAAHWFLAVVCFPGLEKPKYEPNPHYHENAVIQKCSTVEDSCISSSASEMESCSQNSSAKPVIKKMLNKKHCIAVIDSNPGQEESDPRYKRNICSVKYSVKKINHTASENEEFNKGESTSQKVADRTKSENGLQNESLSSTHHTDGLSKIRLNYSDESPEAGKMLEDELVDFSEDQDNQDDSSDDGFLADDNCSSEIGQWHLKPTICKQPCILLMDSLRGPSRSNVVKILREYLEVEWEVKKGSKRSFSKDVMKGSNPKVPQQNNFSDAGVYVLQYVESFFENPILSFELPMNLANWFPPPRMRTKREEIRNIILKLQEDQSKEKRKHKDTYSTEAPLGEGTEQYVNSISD
Assay: co-IP; ALT#1 cells transduced with vector control or Flag-SENP6^C1030A; lysis buffer 50 mM Tris pH 7.5, 120 mM NaCl, 1% NP-40, 5 mM EDTA; 500 ug lysate with IgG or anti-Flag M2 overnight at 4 °C, Protein G magnetic beads 2 h, three washes; western blot

B1: KDM2A (protein, UniProt Q9Y2K7 1-1162)
chain: MEPEEERIRYSQRLRGTMRRRYEDDGISDDEIEGKRTFDLEEKLHTNKYNANFVTFMEGKDFNVEYIQRGGLRDPLIFKNSDGLGIKMPDPDFTVNDVKMCVGSRRMVDVMDVNTQKGIEMTMAQWTRYYETPEEEREKLYNVISLEFSHTRLENMVQRPSTVDFIDWVDNMWPRHLKESQTESTNAILEMQYPKVQKYCLMSVRGCYTDFHVDFGGTSVWYHIHQGGKVFWLIPPTAHNLELYENWLLSGKQGDIFLGDRVSDCQRIELKQGYTFVIPSGWIHAVYTPTDTLVFGGNFLHSFNIPMQLKIYNIEDRTRVPNKFRYPFYYEMCWYVLERYVYCITNRSHLTKEFQKESLSMDLELNGLESGNGDEEAVDREPRRLSSRRSVLTSPVANGVNLDYDGLGKTCRSLPSLKKTLAGDSSSDCSRGSHNGQVWDPQCAPRKDRQVHLTHFELEGLRCLVDKLESLPLHKKCVPTGIEDEDALIADVKILLEELANSDPKLALTGVPIVQWPKRDKLKFPTRPKVRVPTIPITKPHTMKPAPRLTPVRPAAASPIVSGARRRRVRCRKCKACVQGECGVCHYCRDMKKFGGPGRMKQSCVLRQCLAPRLPHSVTCSLCGEVDQNEETQDFEKKLMECCICNEIVHPGCLQMDGEGLLNEELPNCWECPKCYQEDSSEKAQKRKMEESDEEAVQAKVLRPLRSCDEPLTPPPHSPTSMLQLIHDPVSPRGMVTRSSPGAGPSDHHSASRDERFKRRQLLRLQATERTMVREKENNPSGKKELSEVEKAKIRGSYLTVTLQRPTKELHGTSIVPKLQAITASSANLRHSPRVLVQHCPARTPQRGDEEGLGGEEEEEEEEEEEDDSAEEGGAARLNGRGSWAQDGDESWMQREVWMSVFRYLSRRELCECMRVCKTWYKWCCDKRLWTKIDLSRCKAIVPQALSGIIKRQPVSLDLSWTNISKKQLTWLVNRLPGLKDLLLAGCSWSAVSALSTSSCPLLRTLDLRWAVGIKDPQIRDLLTPPADKPGQDNRSKLRNMTDFRLAGLDITDATLRLIIRHMPLLSRLDLSHCSHLTDQSSNLLTAVGSSTRYSLTELNMAGCNKLTDQTLIYLRRIANVTLIDLRGCKQITRKACEHFISDLSINSLYCLSDEKLIQKIS
binding: no binding
